For this experiment, the system named is L1210 leukemia ip in BDF1 mice, survival T/C. Kind of experiment: NCI In Vivo Anticancer Drug Screen. Data for tumor model L1210 Leukemia (intraperitoneal) in B6D2F1 (BDF1) mice. The conditions noted are these: T/C endpoint: mean survival time, higher T/C = longer survival.
[1] abbreviates: dose: 200.0 mg/kg/injection, schedule: Q04DX003 (ip), vehicle: saline with Tween-80.
[2] abbreviates: dose: 400.0 mg/kg/injection, schedule: Q04DX003 (ip), vehicle: saline with Tween-80.
[3] abbreviates: dose: 100.0 mg/kg/injection, schedule: Q01DX009 (ip), vehicle: saline with Tween-80.
[4] abbreviates: dose: 400.0 mg/kg/injection, schedule: Q04DX003 (ip), vehicle: Klucel (hydroxypropylcellulose) (HPC).
Setting [5] is: dose: 400.0 mg/kg/injection, schedule: Q01DX009 (ip), vehicle: saline.

The structures appear in SMILES notation. The list shows only some results of the screen, not a fair sample: it gathers tests that were run many times, whatever their T/C, doses with no T/C, and many T/C values between a quarter and a half above the control. Other doses and runs of a compound stand elsewhere. T/C is the treated group as % of the vehicle group. Some doses have a count of surviving animals in place of a T/C: the source holds a T/C of zero for them, seemingly a mark for toxic or unscored doses. Some doses without a T/C left all or most animals alive at the check, yet need not have been tolerated: survival well below the control is almost never listed, so the zero probably covers shortened survival too. Survivors were counted at the toxicity check, usually on the fifth day, unless a day is given; later deaths do not show. Schedule codes are those of the source, taken here to give the interval after Q, in days (D) or hours (H), and the number of doses after X. Some doses were run more than once; the results are listed from low to high. Some structures stand for samples that the source files as different forms (salt, stereo form or complex); doses refer to the form tested. For survival time, the PubChem record calls one and a half times the control and up active, and a quarter to a half above the control has no call in these data; cut-offs in other NCI protocols can differ. Some T/C values are followed by the survivors on the day toxicity was checked, most often the fifth; without a count, all were alive then. Some schedules carry Z or #; the key to these is not given.

On to `CCCCCCC(=O)/C=C\c1ccccc1`, for which the survivor count runs as follows: (dose: 100.0 mg/kg/injection, schedule: Q04DX003 (sc), vehicle: steroid suspending solution) 0 of 6; (dose: 200.0 mg/kg/injection, schedule: Q04DX003 (sc), vehicle: steroid suspending solution) 0 of 6; (dose: 400.0 mg/kg/injection, schedule: Q04DX003 (sc), vehicle: steroid suspending solution) 0 of 6.

For `CC(CNC(=O)CCOS(C)(=O)=O)NC(=O)CCOS(C)(=O)=O` (stereo not drawn), the T/C is, setting by setting: (dose: 50.0 mg/kg/injection, schedule: Q01DX Z (ip), vehicle: carboxymethylcellulose (CMC)) 127 % of control; (dose: 76.0 mg/kg/injection, schedule: Q01DX Z (ip), vehicle: carboxymethylcellulose (CMC)) 139 % of control; (dose: 113.0 mg/kg/injection, schedule: Q01DX Z (ip), vehicle: carboxymethylcellulose (CMC)) 130 % of control; (dose: 170.0 mg/kg/injection, schedule: Q01DX Z (ip), vehicle: carboxymethylcellulose (CMC)) 148 % of control.

Turning to `COC1C(O)C(C)OC(OC2CCC3(C)C(CCC4C3C(O)CC3(C)C(C5=CC(=O)OC5)CCC43O)C2)C1O` (stereo not drawn), the survivor count runs as follows: (dose: 40.0 mg/kg/injection, schedule: Q01DX001 (ip), vehicle: saline) 2 of 6; (dose: 80.0 mg/kg/injection, schedule: Q01DX001 (ip), vehicle: saline) 0 of 6.

Take `CN=C(N)c1ccc(NC(=O)c2ccc(C(=O)Nc3ccc(C(N)=NC)cc3)cc2)cc1`: the T/C reads like this: (dose: 2.2 mg/kg/injection, schedule: Q01DX Z (ip), vehicle: methylcellulose (MC)) 131 % of control; (dose: 3.3 mg/kg/injection, schedule: Q01DX Z (ip), vehicle: methylcellulose (MC)) 147 % of control; (dose: 60.0 mg/kg/injection, schedule: Q01DX Z (ip), vehicle: methylcellulose (MC)) 146 % of control; (dose: 120.0 mg/kg/injection, schedule: Q01DX Z (ip), vehicle: methylcellulose (MC)) 134 % of control. The survivor count (dose: 16.0 mg/kg/injection, schedule: Q01DX006 (iv), vehicle: saline) was 2 of 6.

As for `Cc1ccc(S(=O)(=O)OC2C(O)C(CO)OC2n2c(Br)c(C(N)=O)c3c(N)ncnc32)cc1` (stereo not drawn), for the setting “dose: 400.0 mg/kg/injection, schedule: Q01DX009 (ip), vehicle: water”, the survivor count is 5 of 5.

For `C=[CH][Pb]([CH]=C)([O]C(=O)C(C)C)[O]C(=O)C(C)C`, the survivor count runs as follows: (dose: 100.0 mg/kg/injection, schedule: Q04DX003 (ip), vehicle: saline with Tween-80) 0 of 6; under setting [1], 0 of 6; under setting [2], 0 of 6.

As for `[Cl][Pd][Cl].[NH-]C1CCCC1.[NH-]C1CCCC1`, the survivor count reads like this: (dose: 100.0 mg/kg/injection, schedule: Q04DX002 (ip), vehicle: saline with Tween-80) 0 of 3; (dose: 200.0 mg/kg/injection, schedule: Q04DX002 (ip), vehicle: saline with Tween-80) 1 of 3; (dose: 400.0 mg/kg/injection, schedule: Q04DX002 (ip), vehicle: saline with Tween-80) 0 of 3.

Consider `CCCCCCCCCCCCCCCC(=O)SCCSC(=O)CCCCCCCCCCCCCCC`, for which the survivor count (dose: 350.0 mg/kg/injection, schedule: Q04DX003 (ip), vehicle: other) is on record as 0 of 6.

In the case of `CC(=O)Nc1ccc(/C=N/Nc2c3ccccc3nc3ccccc23)cc1`, the survivor count is, setting by setting: (dose: 200.0 mg/kg/injection, schedule: Q01DX001 (ip), vehicle: saline) 2 of 4; (dose: 400.0 mg/kg/injection, schedule: Q01DX001 (ip), vehicle: saline) 0 of 4.

With `Cc1nccc2ccsc12`, the survivor count (dose: 300.0 mg/kg/injection, schedule: Q01DX001 (ip), vehicle: other) was 2 of 6.

For the molecule `CC(C)(C)C1CCC(=O)C1` (stereo not drawn), the survivor count was 0 of 3 (dose: 50.0 mg/kg/injection, schedule: Q01DX009 (ip), vehicle: saline with Tween-80); 0 of 3 under setting [3]; 0 of 3 (dose: 200.0 mg/kg/injection, schedule: Q01DX009 (ip), vehicle: saline with Tween-80).

Take `COC(=O)[C@H]1[C@H]2C[C@@H]3c4[nH]c5cc(OC)ccc5c4CCN3C[C@H]2C[C@@H](OC(=O)c2cccc(N(C)C)c2)[C@@H]1OC`: the survivor count (dose: 12.5 mg/kg/injection, schedule: Q01DX009 (ip), vehicle: Klucel (hydroxypropylcellulose) (HPC)) is reported as 4 of 6; the survivor count (dose: 25.0 mg/kg/injection, schedule: Q04DX003 (ip), vehicle: Klucel (hydroxypropylcellulose) (HPC)) is reported as 4 of 4; the survivor count (dose: 50.0 mg/kg/injection, schedule: Q04DX003 (ip), vehicle: Klucel (hydroxypropylcellulose) (HPC)) is 3 of 4; the survivor count (dose: 100.0 mg/kg/injection, schedule: Q04DX003 (ip), vehicle: Klucel (hydroxypropylcellulose) (HPC)) is 0 of 4; the survivor count (dose: 200.0 mg/kg/injection, schedule: Q04DX003 (ip), vehicle: Klucel (hydroxypropylcellulose) (HPC)) is recorded as 2 of 4; the survivor count under setting [4] is 0 of 4.

On to `C=CCc1ccc(OC(=O)Nc2ccc(C(=O)OCC)cc2)c(OC)c1`, for which, under “dose: 400.0 mg/kg/injection, schedule: Q01DX009 (ip), vehicle: Klucel (hydroxypropylcellulose) (HPC)”, the survivor count is recorded as 6 of 6.

Consider `CCN(c1ccccc1)c1ccc([N+](=O)[O-])c2no[n+]([O-])c12`, for which, under “dose: 80.0 mg/kg/injection, schedule: Q04DX003 (ip), vehicle: saline with Tween-80”, the survivor count is 3 of 4.

Take `Cc1ccc(OC(=O)Nc2ccc(C(=O)O)c(O)c2)cc1`: the survivor count under setting [5] is on record as 1 of 6.

In the case of `CC(C)(C)C(=O)C(Br)Br`, the survivor count runs as follows: (dose: 200.0 mg/kg/injection, schedule: Q04DX002 (ip), vehicle: Klucel (hydroxypropylcellulose) (HPC)) 1 of 3; (dose: 400.0 mg/kg/injection, schedule: Q04DX002 (ip), vehicle: Klucel (hydroxypropylcellulose) (HPC)) 0 of 3.

`COC(=O)c1cn[nH]c1/N=N/N(C)C`: the T/C (dose: 38.0 mg/kg/injection, schedule: Q01DX009 (ip), vehicle: other) was 136 % of control; the T/C (dose: 58.0 mg/kg/injection, schedule: Q01DX009 (ip), vehicle: saline) was 126 % of control; the T/C (dose: 88.0 mg/kg/injection, schedule: Q01DX009 (ip), vehicle: saline) is 145 % of control.

Consider `COc1c(N)cc2c(c1C)OC(C)(C)C=C2`, for which the survivor count was 2 of 6 under setting [3]; 3 of 6 under setting [1]; 0 of 6 and 1 of 6 under setting [2].

As for `COc1ccc(C(=O)O)c(CC#N)c1`, the survivor count under setting [4] was 6 of 6.

On to `CC(C)NC(=O)Oc1cccc(NC(=O)C(C)C)c1`, for which, under setting [1], the survivor count is given as 6 of 6.

Take `Nc1ccc(-c2ccc(Br)cc2)cc1`: the survivor count (dose: 300.0 mg/kg/injection, schedule: Q01DX001 (ip), vehicle: carboxymethylcellulose (CMC)) is on record as 1 of 6.

Regarding `C[CH2][Ge]1([CH2]C)[CH2]CC2(CCN(CCCN(C)C)C2)C[CH2]1`, the T/C (dose: 100.0 mg/kg/injection, schedule: Q04DX002 (ip), vehicle: saline) is 94, 98, 109 [4 of 6 alive], 113 % of control. The survivor count was 3 of 6 (dose: 100.0 mg/kg/injection, schedule: Q04DX003 (ip), vehicle: saline); 0 of 6 (dose: 200.0 mg/kg/injection, schedule: Q01DX009 (ip), vehicle: saline); 0 of 3 and 0 of 6 (dose: 200.0 mg/kg/injection, schedule: Q04DX002 (ip), vehicle: saline); 0 of 6 (dose: 200.0 mg/kg/injection, schedule: Q04DX003 (ip), vehicle: saline); 0 of 6 under setting [5]; 0 of 3 and 0 of 6 (dose: 400.0 mg/kg/injection, schedule: Q04DX002 (ip), vehicle: saline). The survivor count (dose: 400.0 mg/kg/injection, schedule: Q04DX003 (ip), vehicle: saline) is recorded as 0 of 6.

For `O=C(NC(C(=O)c1ccccc1)c1ccccc1)c1ccccc1` (stereo not drawn), the survivor count (dose: 200.0 mg/kg/injection, schedule: Q01DX009 (ip), vehicle: Klucel (hydroxypropylcellulose) (HPC)) is 6 of 6.

In the case of `CSC(c1ccccc1)=[N+]1CCOCC1`, the survivor count under setting [4] is reported as 6 of 6.

For the origin of these results see PubChem BioAssay AID248 (DTP/NCI, 2004).
